Results reported in paper PMC10116723.
Results are given in words; binding and its absence hold for the method and conditions named. In cells and extracts the contact can be indirect. Some binding calls cover weakened binding; strength is not graded here.

Sequences of proteins named here, by UniProt entry; tags and fusion partners are left off. A change or cut given only in a name is not applied to a line headed by its entry.
UniProt Q86WV6: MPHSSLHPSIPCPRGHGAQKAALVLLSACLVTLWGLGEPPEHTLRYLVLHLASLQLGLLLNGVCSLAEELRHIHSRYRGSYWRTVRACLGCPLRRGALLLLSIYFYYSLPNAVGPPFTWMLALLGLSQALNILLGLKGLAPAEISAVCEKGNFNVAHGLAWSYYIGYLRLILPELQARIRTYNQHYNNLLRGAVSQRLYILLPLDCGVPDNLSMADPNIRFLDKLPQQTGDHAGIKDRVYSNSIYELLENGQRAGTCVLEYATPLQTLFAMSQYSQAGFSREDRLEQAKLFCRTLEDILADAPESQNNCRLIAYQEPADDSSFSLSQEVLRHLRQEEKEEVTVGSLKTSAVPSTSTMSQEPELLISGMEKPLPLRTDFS
UniProt Q14457: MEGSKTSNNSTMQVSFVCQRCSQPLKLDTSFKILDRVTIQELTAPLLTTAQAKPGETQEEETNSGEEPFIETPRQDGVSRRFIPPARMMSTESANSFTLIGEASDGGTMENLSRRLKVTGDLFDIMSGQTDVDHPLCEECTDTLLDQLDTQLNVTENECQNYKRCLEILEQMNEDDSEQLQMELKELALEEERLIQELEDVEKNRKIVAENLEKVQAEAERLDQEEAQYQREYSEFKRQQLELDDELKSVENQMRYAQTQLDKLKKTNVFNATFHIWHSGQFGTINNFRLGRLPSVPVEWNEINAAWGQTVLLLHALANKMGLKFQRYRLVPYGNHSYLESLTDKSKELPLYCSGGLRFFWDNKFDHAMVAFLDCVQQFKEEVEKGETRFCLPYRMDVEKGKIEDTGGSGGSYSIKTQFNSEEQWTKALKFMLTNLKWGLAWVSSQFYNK

Experiments:
[1] = molecular target: STING, endogenous (human (endogenous in HepaRG or Huh7 ST2-OE/vector cells)) (UniProt Q86WV6); test: co-IP; lysates of ST2-OE and vector cells immunoprecipitated with STING antibody, blotted for Beclin-1; endogenous proteins
[2] = molecular target: Flag-tagged Beclin-1 (human) (UniProt Q14457); test: co-IP; HepaRG cells (or shScram/shST2 cells) co-transfected with tagged plasmids for 24 h, with or without Myc-ST2, rhIL-33 (100 ng/mL), APAP (10 mmol/L, 12 h) or 3-MA (10 mM, 12 h); RIPA lysis; 1 ug primary antibody (anti-Flag, anti-HA or anti-Myc) overnight at 4 °C, Protein G sepharose 4 h; immunoblot

Substance	binding [1]	binding [2]
Beclin-1, endogenous (from UniProt Q14457 1-450)	binds	
HA-STING^1-190 (N-terminal truncation mutant of STING) (from UniProt Q86WV6 1-190) (domain or fragment)		no binding
HA-STING^191-379 (C-terminal truncation mutant of STING) (from UniProt Q86WV6 191-379) (domain or fragment)		binds
HA-tagged STING (stimulator of interferon response cGAMP interactor 1) (from UniProt Q86WV6 1-379)		binds
